The results in this text go back to patent US20170015748A1 (NATIONAL RESEARCH COUNCIL OF CANADA, published 2017).

Protein sequences, listed by entry. Tags and fused reporters are not part of them. Lines headed by an entry give the natural chain unless they say otherwise; changes in a name come on top.
UniProt P08069: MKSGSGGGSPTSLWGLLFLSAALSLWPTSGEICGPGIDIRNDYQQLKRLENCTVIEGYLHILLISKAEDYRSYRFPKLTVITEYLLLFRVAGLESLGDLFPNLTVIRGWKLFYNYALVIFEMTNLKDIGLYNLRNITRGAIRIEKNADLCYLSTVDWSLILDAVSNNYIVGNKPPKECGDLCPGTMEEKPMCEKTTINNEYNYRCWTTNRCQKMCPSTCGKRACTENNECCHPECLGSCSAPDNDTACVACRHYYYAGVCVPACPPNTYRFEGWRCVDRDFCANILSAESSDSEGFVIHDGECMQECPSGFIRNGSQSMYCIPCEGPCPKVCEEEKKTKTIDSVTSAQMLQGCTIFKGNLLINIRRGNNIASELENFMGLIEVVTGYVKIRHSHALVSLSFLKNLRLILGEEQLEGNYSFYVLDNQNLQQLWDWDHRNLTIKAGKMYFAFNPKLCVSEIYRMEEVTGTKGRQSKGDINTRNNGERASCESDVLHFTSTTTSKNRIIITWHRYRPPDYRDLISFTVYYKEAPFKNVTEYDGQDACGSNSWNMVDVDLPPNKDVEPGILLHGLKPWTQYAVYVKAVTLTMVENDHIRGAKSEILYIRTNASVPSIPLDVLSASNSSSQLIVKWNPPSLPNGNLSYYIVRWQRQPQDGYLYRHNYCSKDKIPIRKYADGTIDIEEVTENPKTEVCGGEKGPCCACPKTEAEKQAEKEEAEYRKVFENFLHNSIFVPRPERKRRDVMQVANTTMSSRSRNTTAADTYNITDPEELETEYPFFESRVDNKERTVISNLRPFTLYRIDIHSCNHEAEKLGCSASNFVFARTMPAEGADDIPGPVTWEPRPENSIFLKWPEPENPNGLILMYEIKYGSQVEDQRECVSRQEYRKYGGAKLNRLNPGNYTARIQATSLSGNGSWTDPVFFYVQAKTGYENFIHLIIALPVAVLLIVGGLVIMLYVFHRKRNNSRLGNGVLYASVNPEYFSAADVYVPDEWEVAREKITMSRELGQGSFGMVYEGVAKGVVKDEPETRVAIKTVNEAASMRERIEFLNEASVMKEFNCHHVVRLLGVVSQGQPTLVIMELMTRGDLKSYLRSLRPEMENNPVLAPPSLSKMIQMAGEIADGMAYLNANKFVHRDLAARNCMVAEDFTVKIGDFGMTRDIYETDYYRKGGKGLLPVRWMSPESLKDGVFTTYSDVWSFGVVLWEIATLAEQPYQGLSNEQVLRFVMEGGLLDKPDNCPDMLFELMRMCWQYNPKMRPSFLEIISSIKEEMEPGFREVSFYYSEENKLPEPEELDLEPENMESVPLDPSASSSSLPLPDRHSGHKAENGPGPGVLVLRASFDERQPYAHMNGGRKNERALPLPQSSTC

Sequences and labels used below:
B1: IGF1R-5_H3 (VHH)
VHH: QVQLVESGGGLVQPGGSLRLSCAASGRTIDNYAMAWSRQAPGKGLEFVATIDWGDGGTRYANSVKGRFTISRDNSKNTMYLQMNSLRAEDTAVYYCAMARQSRVNLDVARYDYWGQGTLVTVSS
notes: Humanized variant of IGF1R-5, expressed from pSJF2H in E. coli
B2: IGF1R-5_H5 (VHH)
VHH: B1 VHH with G44D, L45R, N77G, Y95S
notes: as for B1
B3: IGF1R-5_H1 (VHH)
VHH: B1 VHH with Q1E, S37V, F47W, A49S, M79L
notes: as for B1
B4: IGF1R-5_H6 (VHH)
VHH: B1 VHH with Q1E, G44D, L45R, A49S, M79L
notes: as for B1
B5: IGF1R-5_H2 (VHH)
VHH: B1 VHH with S37V, F47W
notes: Humanized variant of IGF1R-5, expressed from pSJF2H in E. coli; also called IGF1R H2
B6: IGF1R-5 VHH (VHH)
VHH: QVKLEESGGGLVQAGGSLRLSCAASGRTIDNYAMAWSRQAPGKDREFVATIDWGDGGARYANSVKGRFTISRDNAKGTMYLQMNNLEPEDTAVYSCAMARQSRVNLDVARYDYWGQGTQVTVSS
notes: Llama VHH expressed in E. coli TG1 from vector pSJF2H and purified by IMAC; Monomeric by SEC; also called anti-IGF1R VHH IGF1R-5; wild-type IGF1R-5

Residue numbers refer to the chain shown, from its start. No constants are given. Whether binding was seen depends on the method and setting. Some results given as binding are weak or reduced against the parent protein; the word gives no strength.

For the first experiment, the target named is recombinant extracellular portion of human IGF1R (IGF1R^933-His fragment) (human) (UniProt P08069). Kind of experiment: SPR. In general terms: SPR reads the build-up and loss of mass on a sensor chip optically.
In the case of B1, the binding result was “binds”.

As for B2, the binding entry is “binds”.

As to B3, the binding entry was “binds”.

Consider B4, for which the binding result is “binds”.

Turning to B5, the binding result is “binds”.

For the molecule B6, the binding result was “binds”.

For another experiment the target is unchanged. Kind of experiment: SPR (legend of FIG. 3D).
With B6, the binding entry is recorded as “binds”.

For a further experiment the target is unchanged. Kind of experiment: phage ELISA, plates coated with 5 µg/ml IGF1R^933-His.
For B6, the binding entry is “binds”.

Another experiment has the same target. Kind of experiment: SPR (BIACORE 3000); human IGF1R immobilised on a CM5 chip, VHH injected at 0.1-10 nM (range from the legend; single traces are not labelled).
As to B1, the binding result is reported as “binds”.

Take B2: the binding result was “binds”.

Take B3: the binding entry is “binds”.

As to B4, the binding entry is recorded as “binds”.

Regarding B5, the binding result is reported as “binds”.

B6: the binding entry was “binds”.
